Laboratory results reported in PubChem BioAssay AID248 (DTP/NCI, 2004).
The list shows only some results of the screen, not a fair sample: it is rich in T/C values a quarter to a half above the control, in often repeated tests (any T/C) and in doses without a T/C. Further doses and runs are listed elsewhere. T/C: endpoint of the treated group in % of that of the vehicle group. Some entries give survivors of the animals treated and no T/C: the source files T/C as zero there, which appears to mark a toxic dose or a test without result, not a measured value. Some survivor counts are full or nearly so, which does not show that the dose was tolerated: survival well below the control is almost never listed, so the zero probably covers shortened survival too. Counts of survivors are from the toxicity check (mostly the fifth day) where no day follows; animals may have died later. Schedule codes are those of the source, taken here to give the interval after Q, in days (D) or hours (H), and the number of doses after X. Some doses were run more than once; their values stand side by side, smallest first. Some schedule codes hold Z or #, which are not explained here. For survival time, the PubChem record calls one and a half times the control and up active, and a quarter to a half above the control has no call in these data; cut-offs in other NCI protocols can differ.

System: L1210 leukemia ip in BDF1 mice, survival T/C
Test: NCI In Vivo Anticancer Drug Screen. Data for tumor model L1210 Leukemia (intraperitoneal) in B6D2F1 (BDF1) mice
Conditions: T/C endpoint: mean survival time, higher T/C = longer survival
[1] = dose: 400.0 mg/kg/injection, schedule: Q01DX009 (ip), vehicle: Klucel (hydroxypropylcellulose) (HPC)
[2] = dose: 200.0 mg/kg/injection, schedule: Q01DX001 (ip), vehicle: saline
[3] = dose: 400.0 mg/kg/injection, schedule: Q01DX001 (ip), vehicle: saline
[4] = dose: 100.0 mg/kg/injection, schedule: Q04DX003 (ip), vehicle: Klucel (hydroxypropylcellulose) (HPC)
[5] = dose: 200.0 mg/kg/injection, schedule: Q04DX003 (ip), vehicle: Klucel (hydroxypropylcellulose) (HPC)
[6] = dose: 400.0 mg/kg/injection, schedule: Q04DX003 (ip), vehicle: Klucel (hydroxypropylcellulose) (HPC)
[7] = dose: 400.0 mg/kg/injection, schedule: Q04DX003 (ip), vehicle: saline with Tween-80
[8] = dose: 400.0 mg/kg/injection, schedule: Q01DX001 (ip), vehicle: carboxymethylcellulose (CMC)
[9] = dose: 400.0 mg/kg/injection, schedule: Q04DX002 (ip), vehicle: saline
[10] = dose: 400.0 mg/kg/injection, schedule: Q01DX009 (ip), vehicle: saline with Tween-80

In the case of `CCN(CC)c1ccc(NCS(=O)(=O)O)cc1`, the survivor count (dose: 200.0 mg/kg/injection, schedule: Q01DX009 (ip), vehicle: saline sonified) is reported as 2 of 6, the survivor count (dose: 200.0 mg/kg/injection, schedule: Q04DX003 (ip), vehicle: saline) is reported as 5 of 6 and the survivor count (dose: 400.0 mg/kg/injection, schedule: Q04DX003 (ip), vehicle: saline) is reported as 0 of 6.

For `N#CC(C(=O)Nc1cccc(C(F)(F)F)c1)C(=S)Nc1ccccc1Cl` (centres undefined), the survivor count (dose: 200.0 mg/kg/injection, schedule: Q04DX002 (ip), vehicle: saline with Tween-80) was 1 of 3 and the survivor count (dose: 400.0 mg/kg/injection, schedule: Q04DX002 (ip), vehicle: saline with Tween-80) was 1 of 3.

In the case of `COc1ccc(NC(=O)OC/C=C/c2ccccc2)c(OC)c1`, the survivor count [1] is reported as 6 of 6.

With `CCCOC(=O)NNC(=O)OCCC` the survivor count (dose: 150.0 mg/kg/injection, schedule: Q01DX009 (ip), vehicle: Klucel (hydroxypropylcellulose) (HPC)) was 6 of 6 and the survivor count (dose: 300.0 mg/kg/injection, schedule: Q01DX009 (ip), vehicle: Klucel (hydroxypropylcellulose) (HPC)) was 0 of 6.

In the case of `NC(=S)N/N=C/C=N/NC(N)=S`, the survivor count (dose: 10.0 micrograms/kg/injection, schedule: Q01DX009 (ip), vehicle: carboxymethylcellulose (CMC)) is reported as 3 of 6 and the survivor count (dose: 50.0 micrograms/kg/injection, schedule: Q01DX009 (ip), vehicle: carboxymethylcellulose (CMC)) is reported as 1 of 6.

In the case of `CC[C@@]1(O)c2cc3n(c(=O)c2CO[C@H]1O)Cc1cc2ccccc2nc1-3`, the T/C (dose: 24.0 mg/kg/injection, schedule: Q01DX007 (ip), vehicle: other) is reported as 139 % of control.

In the case of `Nc1nc(=O)n(C2OC(CO)C(O)C2O)c2nc(I)[nH]c12` (centres undefined), the survivor count (dose: 200.0 mg/kg/injection, schedule: Q01DX005 (ip), vehicle: saline) is reported as 1 of 4.

With `CC1(C)CCN1Cc1ccccc1` the survivor count (dose: 100.0 mg/kg/injection, schedule: Q01DX001 (ip), vehicle: saline) was 2 of 6, the survivor count [2] was 0 of 6 and the survivor count [3] was 0 of 6.

In the case of `O=C(NCCCCN1CC1)C(=O)NCCCCN1CC1`, the T/C (dose: 5.5 mg/kg/injection, schedule: Q04DX003 (ip), vehicle: Klucel (hydroxypropylcellulose) (HPC)) is reported as 147 % of control, the T/C (dose: 6.0 mg/kg/injection, schedule: Q04DX003 (ip), vehicle: Klucel (hydroxypropylcellulose) (HPC)) is reported as 135 % of control and the T/C (dose: 6.25 mg/kg/injection, schedule: Q04DX003 (ip), vehicle: Klucel (hydroxypropylcellulose) (HPC)) is reported as 139 % of control. For the same compound, the T/C (dose: 12.0 mg/kg/injection, schedule: Q04DX003 (ip), vehicle: Klucel (hydroxypropylcellulose) (HPC)) was 145 % of control, the T/C (dose: 12.5 mg/kg/injection, schedule: Q04DX003 (ip), vehicle: Klucel (hydroxypropylcellulose) (HPC)) was 149 % of control and the T/C (dose: 25.0 mg/kg/injection, schedule: Q04DX003 (ip), vehicle: Klucel (hydroxypropylcellulose) (HPC)) was 133 % of control. For the same compound, the survivor count [4] was 0 of 6, the survivor count [5] was 0 of 6 and the survivor count [6] was 0 of 6.

With `OC1CCCCCC2CC12` (centres undefined) the survivor count (dose: 200.0 mg/kg/injection, schedule: Q01DX005 (ip), vehicle: saline with Tween-80) was 3 of 3 and the survivor count (dose: 400.0 mg/kg/injection, schedule: Q01DX005 (ip), vehicle: saline with Tween-80) was 3 of 3.

For `O=C(O)c1c(O)cc(O)cc1O`, the survivor count [7] was 1 of 6.

In the case of `Cc1ccc(C)c(NC(=O)Nc2ccccc2C)c1`, the survivor count (dose: 50.0 mg/kg/injection, schedule: Q01DX009 (ip), vehicle: Klucel (hydroxypropylcellulose) (HPC)) is reported as 6 of 6, the survivor count (dose: 100.0 mg/kg/injection, schedule: Q01DX009 (ip), vehicle: Klucel (hydroxypropylcellulose) (HPC)) is reported as 6 of 6 and the survivor count [1] is reported as 5 of 6.

With `CNC(=O)c1cc(NC(=O)c2ccc(C(=O)Nc3cc(C(=O)NC)cc(C4=NCCN4)c3)cc2)cc(C2=NCCN2)c1` the T/C (dose: 250.0 mg/kg/injection, schedule: Q01DX015 (ip), vehicle: methylcellulose (MC)) was 133 % of control and the survivor count [8] was 4 of 4.

In the case of `C1CSC(=[N+]2CC[N+](=C3SCCS3)CC2)S1`, the survivor count (dose: 100.0 mg/kg/injection, schedule: Q04DX002 (ip), vehicle: saline) is reported as 0 of 3, the survivor count (dose: 200.0 mg/kg/injection, schedule: Q04DX002 (ip), vehicle: saline) is reported as 0 of 3 and the survivor count [9] is reported as 0 of 3.

`CCOC(=O)/C(C#N)=C(\CC)c1ccccc1` was tested, and the survivor count [1] was 0 of 6.

With `O/N=C\c1ccccc1Cl` the survivor count [10] was 3 of 6.

For `OCCOc1c(Cl)c(Cl)c(Cl)c(Cl)c1Cl`, the survivor count [7] was 0 of 6.

`CCCN1CCCC(OC(=O)N(C)C)C1` (centres undefined) was tested, and the survivor count (dose: 400.0 mg/kg/injection, schedule: Q04DX002 (ip), vehicle: Klucel (hydroxypropylcellulose) (HPC)) was 1 of 3.

In the case of `COc1cccc(CC(N)=O)c1OC`, the survivor count (dose: 400.0 mg/kg/injection, schedule: Q01DX009 (ip), vehicle: saline) is reported as 6 of 6.

With `COC1CCC(OC2CC(C3(C)CCC4(CC(O)C(C)C(C(C)/C=C(\C)C(=O)C(C)CC(C)C(=O)O)O4)O3)OC3(OC(C4OC(O)(CO)C(C)CC4C)CC3C)C2C)OC1C` (centres undefined) the survivor count (dose: 0.46 mg/kg/injection, schedule: Q04DX003 (ip), vehicle: saline) was 6 of 6, the survivor count (dose: 0.93 mg/kg/injection, schedule: Q04DX003 (ip), vehicle: saline) was 5 of 6 and the survivor count (dose: 1.87 mg/kg/injection, schedule: Q04DX003 (ip), vehicle: saline) was 0 of 6. The survivor count (dose: 3.75 mg/kg/injection, schedule: Q01DX001 (ip), vehicle: saline) was 0 of 6, the survivor count (dose: 7.5 mg/kg/injection, schedule: Q01DX001 (ip), vehicle: saline) was 0 of 6 and the survivor count (dose: 15.0 mg/kg/injection, schedule: Q01DX001 (ip), vehicle: saline) was 0 of 6. For the same compound, the survivor count (dose: 30.0 mg/kg/injection, schedule: Q01DX001 (ip), vehicle: saline) was 0 of 6.

In the case of `S=c1nc[nH]c2c1N=CNN2`, the survivor count (dose: 50.0 mg/kg/injection, schedule: Q01DX001 (ip), vehicle: carboxymethylcellulose (CMC)) is reported as 0 of 4, the survivor count (dose: 80.0 mg/kg/injection, schedule: Q01DX001 (ip), vehicle: carboxymethylcellulose (CMC)) is reported as 0 of 6 and the survivor count (dose: 100.0 mg/kg/injection, schedule: Q01DX001 (ip), vehicle: carboxymethylcellulose (CMC)) is reported as 0 of 4. The survivor count (dose: 200.0 mg/kg/injection, schedule: Q01DX001 (ip), vehicle: carboxymethylcellulose (CMC)) was 0 of 4 and the survivor count [8] was 0 of 6.

In the case of `C=CCCCCCCCCC(=O)N(CCOC)CCOC`, the survivor count (dose: 200.0 mg/kg/injection, schedule: Q01DX009 (ip), vehicle: saline with Tween-80) is reported as 3 of 6 and the survivor count [10] is reported as 0 of 6.

With `CC(C)(C)NC(=O)Nc1ccccn1` the survivor count [10] was 2 of 3 and the survivor count [7] was 3 of 6.

In the case of `CC(=O)SCC(CSC(C)=O)c1nncc2ccccc12`, the survivor count [2] is reported as 0 of 6 and the survivor count [3] is reported as 0 of 6.

With `CCOC(=O)CNc1ccc(F)c(C(F)(F)F)c1` the T/C [9] was 133 % of control.

With `CCCCCCCCCCC(S(=O)(=O)CC)S(=O)(=O)CC` the survivor count (dose: 400.0 mg/kg/injection, schedule: Q01DX001 (ip), vehicle: Klucel (hydroxypropylcellulose) (HPC)) was 6 of 6.

`COc1ccc(Nc2ccccc2C(=O)NN)cc1` was tested, and the survivor count (dose: 200.0 mg/kg/injection, schedule: Q01DX009 (ip), vehicle: Klucel (hydroxypropylcellulose) (HPC)) was 3 of 6 and the survivor count [6] was 0 of 6.

With `Nc1ccc(C(=O)O)cn1` the survivor count [3] was 2 of 4.

In the case of `C[N+](C)(C)CCC[N+]1(C)CC2CC=CCC2C1` (centres undefined), the survivor count (dose: 222.0 mg/kg/injection, schedule: Q01DX Z (ip), vehicle: saline) is reported as 1 of 6, the survivor count (dose: 333.0 mg/kg/injection, schedule: Q01DX Z (ip), vehicle: saline) is reported as 0 of 6 and the survivor count (dose: 500.0 mg/kg/injection, schedule: Q01DX Z (ip), vehicle: saline) is reported as 0 of 6.

`Cc1cc(CC#N)c(C)c([N+](=O)[O-])c1` was tested, and the survivor count [4] was 0 of 3 and 1 of 3, the survivor count [5] was 0 of 3 and the survivor count [6] was 0 of 3.
